Results taken from patent publication US20050214412A1, “APPARATUS AND METHOD FOR DELIVERING NUTRITIONAL SUPPLEMENTS WITH BEVERAGE SWEETENERS” (priority 2004, published 2005).

Experiment: Taste tests of aqueous solutions
Details: about 1 g of each component in 20 mL water, a couple drops on the tongue

SMILES: O=C1O[C@H]([C@@H](O)CO)C(O)=C1O [Vit. C, ascorbic acid]
- Taste Description: Sour, dissipates quickly, no aftertaste
- Taste Description (listed as Vitamin C): sour taste
